Laboratory results: PubChem BioAssay AID1259254 (NCATS, 2017)

Assay: 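Gene knock-downs that lead to re-replication, shown by excess G2 DNA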 (primary screen)
System: human HCT116 colorectal cancer cells
Reagents: single siRNA against human genes
Timing: 3 days
Measured: 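Nuclei stained with Hoechst and imaged; cell-cycle phase assigned by DNA content; G2 share scaled per plate, non-targeting siRNA 0%, GMNN siRNA 100%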
Direction: G2 robust z-score and G2 cells, % of GMNN control: higher = more G2 cells, more excess DNA replication; raw share of cells in G2: higher = larger share of cells with G2 DNA content
Rule for the call: 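An siRNA counts as active if its G2 robust z-score lies at least 5 MADs above the screen median; here such calls match roughly 38% of GMNN control or more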
The deposit covers about 59,000 reagents; below is a part drawn at random. Of all reagents, about 1,550 (2.6%) were called active. 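G2 share is only a proxy for re-replication; each gene was hit by three separate siRNAs, and active genes were retested.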 Raw values vary from plate to plate and are shown uncorrected. The numbers tell different reagents against one gene apart. Reagent sequences are not shown. Not given: the amount of reagent.

no.	Gene	reagent no.	G2 robust z-score	G2 cells, % of GMNN control	raw share of cells in G2 (%)	call
1	JUN (GeneID 3725)	1	2.21	18.5	11.8	inactive
2	JUN (GeneID 3725)	2	0.485	6.38	6.54	inactive
3	JUN (GeneID 3725)	3	-1.28	-6.05	3.38	inactive
4	TMPPE (GeneID 643853)	1	-0.486	-0.45	3.47	inactive
5	TMPPE (GeneID 643853)	2	-0.836	-2.92	2.22	inactive
6	TMPPE (GeneID 643853)	3	-0.895	-3.33	2.18	inactive
7	HSD17B12 (GeneID 51144)	1	0.305	5.11	5.76	inactive
8	HSD17B12 (GeneID 51144)	2	1.25	11.7	8.58	inactive
9	HSD17B12 (GeneID 51144)	3	0.259	4.79	8.13	inactive
10	TDRD5 (GeneID 163589)	1	0.104	3.7	7.72	inactive
11	TDRD5 (GeneID 163589)	2	3.19	25.4	14	inactive
12	TDRD5 (GeneID 163589)	3	0.322	5.23	6.9	inactive
13	CDH19 (GeneID 28513)	1	-0.485	-0.447	4.04	inactive
14	CDH19 (GeneID 28513)	2	-1.29	-6.13	1.98	inactive
15	CDH19 (GeneID 28513)	3	-1.19	-5.44	3.7	inactive
16	USP8 (GeneID 9101)	1	-0.586	-1.16	5.16	inactive
17	USP8 (GeneID 9101)	2	-0.926	-3.55	3.65	inactive
18	USP8 (GeneID 9101)	3	0.447	6.11	6.19	inactive
19	RASAL3 (GeneID 64926)	1	0.434	6.02	7.2	inactive
20	RASAL3 (GeneID 64926)	2	-0.437	-0.106	4.56	inactive
21	RASAL3 (GeneID 64926)	3	-0.066	2.5	3.36	inactive
22	RPE65 (GeneID 6121)	1	-0.69	-1.89	3.96	inactive
23	RPE65 (GeneID 6121)	2	4.09	31.7	14.7	inactive
24	RPE65 (GeneID 6121)	3	0.339	5.35	6.82	inactive
25	B3GNT8 (GeneID 374907)	1	1.12	10.8	9.19	inactive
26	B3GNT8 (GeneID 374907)	2	0.913	9.39	7.71	inactive
27	B3GNT8 (GeneID 374907)	3	0.675	7.72	9.24	inactive
28	BRS3 (GeneID 680)	1	1.19	11.4	9.91	inactive
29	BRS3 (GeneID 680)	2	-0.262	1.12	4.91	inactive
30	BRS3 (GeneID 680)	3	4.74	36.3	14.4	inactive
31	KIF9 (GeneID 64147)	1	0.346	5.4	6.19	inactive
32	KIF9 (GeneID 64147)	2	-0.708	-2.01	4.81	inactive
33	KIF9 (GeneID 64147)	3	8.49	62.7	26.5	active
34	MRPS28 (GeneID 28957)	1	-0.615	-1.36	5.55	inactive
35	MRPS28 (GeneID 28957)	2	-0.948	-3.71	2.96	inactive
36	MRPS28 (GeneID 28957)	3	-0.491	-0.491	3.83	inactive
37	CCDC149 (GeneID 91050)	1	0.0274	3.16	5.42	inactive
38	CCDC149 (GeneID 91050)	2	-0.252	1.19	3.37	inactive
39	CCDC149 (GeneID 91050)	3	0.937	9.56	5.96	inactive
40	MTCL1 (GeneID 23255)	1	5.94	44.7	22.5	active
41	MTCL1 (GeneID 23255)	2	-0.614	-1.35	3.58	inactive
42	MTCL1 (GeneID 23255)	3	-0.816	-2.77	2.14	inactive
43	SRPX (GeneID 8406)	1	-0.141	1.97	6.01	inactive
44	SRPX (GeneID 8406)	2	1.18	11.3	8.37	inactive
45	SRPX (GeneID 8406)	3	0.13	3.88	4.72	inactive
46	TBCK (GeneID 93627)	1	4.77	36.5	18.7	inactive
47	TBCK (GeneID 93627)	2	4.44	34.2	13.5	inactive
48	TBCK (GeneID 93627)	3	-0.716	-2.07	1.21	inactive

Called active, among the entries above:
Gene	reagent no.	G2 robust z-score	G2 cells, % of GMNN control	raw share of cells in G2 (%)	call
KIF9 (GeneID 64147)	3	8.49	62.7	26.5	active
MTCL1 (GeneID 23255)	1	5.94	44.7	22.5	active
